± gives the standard deviation of the averaged measurements. Values are relative to the signal before dosing, not to a vehicle control; the signal also falls without drug.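 The cancer cells are triple-negative breast cancer lines of basal-like or mesenchymal-like type, grown without fibroblasts. A drop in red signal reflects loss of mitochondrial integrity, a stand-in for apoptotic death.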
Columns and labels:
Hs578T = test: relative JC-1 red fluorescence (viability) vs pre-drug, monoculture (fraction); higher = more viable cancer cells; conditions: coculture fibroblast: none (monoculture)
Description: (§1)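 JC-1 labelled TNBC cells grown in monoculture (density kept equal with unlabelled cancer cells) in 384-well plates in FluoroBrite medium, treated with one of 42 anticancer drugs at 0.1, 1, 10 or 100 uM. JC-1 red fluorescence (mitochondrial integrity, surrogate of apoptotic death) was read by plate reader every 8 h for 72 h. Values are normalised to each well's pre-drug value, with background from alamethicin. The stock of one drug was tenfold lower, so its dose labels may be too high. Monoculture values are repeated alongside each fibroblast plate and are averaged here.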

HCC1143 = test: as above; conditions: coculture fibroblast: none (monoculture)
Description: as §1

CO[C@H]1C[C@@H]2CC[C@@H](C)[C@@](O)(O2)C(=O)C(=O)N2CCCC[C@H]2C(=O)O[C@H]([C@H](C)C[C@@H]2CC[C@@H](OCCO)[C@H](OC)C2)CC(=O)[C@H](C)/C=C(\C)[C@@H](O)[C@@H](OC)C(=O)[C@H](C)C[C@H](C)/C=C/C=C/C=C/1C [Everolimus]
relative JC-1 red fluorescence
Conditions | 8 h | 16 h | 24 h | 32 h | 40 h | 48 h | 56 h | 64 h | 72 h
HCC1143, 0.1 µM | 0.8732 ± 0.002 | 0.772 ± 0.012 | 0.6975 ± 0.0055 | 0.651 ± 0.011 | 0.5993 ± 0.0054 | 0.5605 ± 0.0026 | 0.529 ± 0.008 | 0.522 ± 0.012 | 0.515 ± 0.01
HCC1143, 1 µM | 0.875 ± 0.018 | 0.801 ± 0.031 | 0.735 ± 0.042 | 0.685 ± 0.057 | 0.646 ± 0.059 | 0.603 ± 0.052 | 0.575 ± 0.051 | 0.566 ± 0.057 | 0.553 ± 0.052
HCC1143, 10 µM | 0.956 ± 0.021 | 0.929 ± 0.018 | 0.869 ± 0.039 | 0.82 ± 0.032 | 0.791 ± 0.037 | 0.754 ± 0.028 | 0.716 ± 0.027 | 0.698 ± 0.028 | 0.685 ± 0.039
HCC1143, 100 µM | 0.827 ± 0.052 | 0.819 ± 0.095 | 0.753 ± 0.1 | 0.67 ± 0.09 | 0.606 ± 0.043 | 0.534 ± 0.0065 | 0.498 ± 0.048 | 0.427 ± 0.077 | 0.388 ± 0.12
Hs578T, 0.1 µM | 0.862 ± 0.012 | 0.732 ± 0.0079 | 0.671 ± 0.017 | 0.6164 ± 0.0061 | 0.5788 ± 0.0016 | 0.5593 ± 0.0017 | 0.5399 ± 0.0035 | 0.5422 ± 0.0019 | 0.5307 ± 0.0029
Hs578T, 1 µM | 0.866 ± 0.0098 | 0.747 ± 0.024 | 0.688 ± 0.034 | 0.615 ± 0.026 | 0.569 ± 0.04 | 0.545 ± 0.04 | 0.519 ± 0.04 | 0.52 ± 0.036 | 0.515 ± 0.035
Hs578T, 10 µM | 0.935 ± 0.015 | 0.8331 ± 0.0062 | 0.863 ± 0.063 | 0.804 ± 0.055 | 0.769 ± 0.079 | 0.767 ± 0.1 | 0.748 ± 0.11 | 0.76 ± 0.13 | 0.758 ± 0.13
Hs578T, 100 µM | 0.816 ± 0.051 | 0.878 ± 0.039 | 0.83 ± 0.015 | 0.766 ± 0.0079 | 0.6686 ± 0.0018 | 0.585 ± 0.023 | 0.524 ± 0.046 | 0.454 ± 0.073 | 0.396 ± 0.099

Source: the supplement of paper PMC6078165
